{"sequences": {"note": "Sequences of proteins named here, by UniProt entry; tags and fusion partners are left off. A change or cut given only in a name is not applied to a line headed by its entry.", "UniProt P48031": "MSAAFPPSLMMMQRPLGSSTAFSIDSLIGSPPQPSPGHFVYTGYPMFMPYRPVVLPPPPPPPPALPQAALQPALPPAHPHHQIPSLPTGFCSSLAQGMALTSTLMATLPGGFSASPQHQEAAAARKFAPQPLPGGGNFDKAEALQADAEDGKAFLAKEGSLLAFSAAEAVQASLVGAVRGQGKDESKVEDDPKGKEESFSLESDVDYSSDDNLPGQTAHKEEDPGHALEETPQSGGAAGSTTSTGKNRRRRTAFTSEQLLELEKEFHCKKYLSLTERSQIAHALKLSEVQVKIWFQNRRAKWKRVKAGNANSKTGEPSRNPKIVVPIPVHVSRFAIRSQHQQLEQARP"}, "source": "paper PMC7768483", "biological_target": "GBX2 (full-length) (mouse) (UniProt P48031)", "test": "competition with a labelled probe", "details": "unlabeled N2 at 100x, 300x, 500x against labeled N1, reduction of shift diminished; 2X binding buffer: 20 mM Tris-HCl pH 7.4, 50 mM KCl, 1 mM DTT, 10% glycerol, 200 µg/mL BSA, 2.2 µg/mL poly dI/dC; 30 min at 25 °C; 6% native PAGE, Tris-glycine; recombinant protein; residues 1-348; label: unlabeled", "note": "A weaker result is weaker than the reference pair of the same experiment."}
{"sequence": "AACATTCCAAAAATTATCAAGATTGAGTTCTGCTTGTTTTTTATT (double strand) [NRP1 mutated 45-mer (GBX2-binding sequence omitted)]", "values": [{"measurement": "binding result", "result": "binds more weakly"}]}
